# Measurements: PubChem BioAssay AID1671190 (National Center for Advancing Translational Sciences (NCATS), 2021)
# The chains behind the UniProt entries cited, without tags or fusion partners. Where a name states a change or a piece, a line headed by the entry shows the natural chain unless it says otherwise.
# UniProt P18054: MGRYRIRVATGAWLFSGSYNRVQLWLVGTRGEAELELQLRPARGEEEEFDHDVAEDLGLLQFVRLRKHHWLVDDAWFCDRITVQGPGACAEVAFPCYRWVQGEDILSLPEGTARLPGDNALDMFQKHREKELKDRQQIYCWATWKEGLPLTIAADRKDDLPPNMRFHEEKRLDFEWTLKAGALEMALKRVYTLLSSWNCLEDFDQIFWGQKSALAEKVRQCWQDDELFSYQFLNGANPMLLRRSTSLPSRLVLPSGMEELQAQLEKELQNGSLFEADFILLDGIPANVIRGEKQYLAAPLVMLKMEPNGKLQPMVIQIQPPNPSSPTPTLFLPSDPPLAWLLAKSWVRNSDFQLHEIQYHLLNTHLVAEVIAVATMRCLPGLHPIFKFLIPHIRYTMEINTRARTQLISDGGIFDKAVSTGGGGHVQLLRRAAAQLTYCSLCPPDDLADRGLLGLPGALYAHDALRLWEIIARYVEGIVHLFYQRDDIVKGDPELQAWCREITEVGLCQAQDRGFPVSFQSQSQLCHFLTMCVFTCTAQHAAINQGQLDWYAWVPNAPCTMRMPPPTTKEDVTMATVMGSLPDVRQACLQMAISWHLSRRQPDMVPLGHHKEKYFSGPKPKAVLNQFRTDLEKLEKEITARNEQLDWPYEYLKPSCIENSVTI
# “And” between values parts separate entries of the source, which are not always exact repeats. Equal values may be shown once. In all, about 580,000 compounds went through this assay and about 6,100 (1.1%) were called active. Inconclusive means that the source gave no clear call. Such entries were picked first, then a sample of the others. Calls follow the shape of the dose curve; as a rule, active = well fitted inhibition curve with a large enough effect; inconclusive = small, poorly fitted or top-dose-only effect, or another doubt; inactive = no such curve, though single readings can be large or run the other way. Potencies beside an inconclusive call are fits to weak or partial responses and may not hold up.
# Biological target: Polyunsaturated fatty acid lipoxygenase ALOX12 (Homo sapiens) (UniProt P18054)
# Experiment: Primary qHTS assay for inhibitors of human arachidonate 12S-lipoxygenase (ALOX12): Round 2
# Details: purified 12hLO, xylenol orange hydroperoxide absorbance; activity change, negative = inhibition: at 108 µM (top of the series) unless noted
# Method in brief: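 Hydroperoxide product was detected by ferrous iron/xylenol orange as the 573 to 405 nm absorbance ratio. Arachidonic acid at 40 uM (final) was turned over for 30 min at room temperature by 150 nM human 12hLO, pH 7.0 Hepes buffer, after 15 min compound preincubation.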
# % is scaled to controls: 0 for no effect and ±100 for the full control effect; potency is read from the fitted curve at half-maximal effect.
Compound,Potency,"activity change, negative = inhibition"
O=c1[nH]c(-c2cccc(O)c2)nc2c1Cc1c(ccc3ccccc13)O2,"inconclusive: 79.4 µM [inhibitor, partial curve, poor fit]",
Cc1ccsc1-c1cc2nc(NCCCN(C)C)n(C)c(=O)c2s1,"inconclusive: 50.1 µM [inhibitor, partial curve, poor fit]",
CCOC(=O)/C(N=Nc1ccc(F)cc1)=C(/O)c1ccc([N+](=O)[O-])cc1,"inconclusive: 3.16 µM [inhibitor, full curve, poor fit]",
O=C1O[C@@H](c2ccccc2)C[C@@H](O)C(=O)CCCCc2ccccc21,"inconclusive: 100 µM [inhibitor, single point]",
O=C(OCC(=O)N1CCOCC1)C1=NN(c2ccccc2)C(=O)CC1,"inconclusive: 100 µM [inhibitor, single point]",
CCCCC(=O)N1C/C=C\[C@H](c2ccc(OC)cc2)N(Cc2ccc(F)cc2)C(=O)[C@@H]1C,"inconclusive: 70.8 µM [inhibitor, partial curve, poor fit]",
CN(C)c1ccc(CN2CCC3(CC2)C(C(=O)O)CC(=O)N3C)cn1 (stereo unspecified),,inactive: -5.15%
CCc1c(C)sc(NC(=O)c2cccc3ccccc23)c1C#N,"inconclusive: 39.8 µM [inhibitor, partial curve, poor fit]",
CCN1CCN(c2cc(C)c3cc(NC(=O)/C=C/c4ccc(OCCC(C)C)cc4)ccc3n2)CC1,"inconclusive: 158 µM [inhibitor, single point]",
CC(NC(=O)/C=C/c1ccco1)c1nc2ccccc2n1Cc1ccccc1F (stereo unspecified),"inconclusive: 35.5 µM [inhibitor, partial curve]",
CC(=O)Nc1ccc(NC(=O)c2ccc(N(Cc3ccccc3C)S(C)(=O)=O)cc2)cc1,"inconclusive: 79.4 µM [inhibitor, partial curve, poor fit]",
FC(F)(F)c1cccc(-c2cnc3ccc(C4CC4)nn23)c1,"inconclusive: 44.7 µM [inhibitor, partial curve, poor fit]",
Cc1cccc(NC(c2ccc(C)s2)c2ccc3ccc(C)nc3c2O)n1 (stereo unspecified),"inconclusive: 3.55 µM [inhibitor, full curve]",
CC1CCC(C(C)C)C(OCC(O)CNC(C)C)C1 (stereo unspecified),,inactive: -4.95%
O=C(CCNc1cccc(F)c1)c1cc2ccccc2o1,"inactive and inconclusive: 39.8 µM [inhibitor, partial curve, poor fit]",
O=C(NCc1ccco1)N[C@H]1CC[C@@]23CCCN2C(=O)CCC[C@H]3C1Cc1ccccc1 (stereo partly specified),"inconclusive: 63.1 µM [inhibitor, partial curve, poor fit]",

# Already shown: entries from further up.
Compound,Potency,"activity change, negative = inhibition"
O=C(CCNc1cccc(F)c1)c1cc2ccccc2o1,"inactive and inconclusive: 39.8 µM [inhibitor, partial curve, poor fit]",
O=C(NCc1ccco1)N[C@H]1CC[C@@]23CCCN2C(=O)CCC[C@H]3C1Cc1ccccc1 (stereo partly specified),"inconclusive: 63.1 µM [inhibitor, partial curve, poor fit]",
